Experimental findings from PMC5524036 are described below.

Amino acid sequences for entries named in this document (tags omitted). A change or cut given only in a name is not applied to a line headed by its entry.
UniProt Q60932: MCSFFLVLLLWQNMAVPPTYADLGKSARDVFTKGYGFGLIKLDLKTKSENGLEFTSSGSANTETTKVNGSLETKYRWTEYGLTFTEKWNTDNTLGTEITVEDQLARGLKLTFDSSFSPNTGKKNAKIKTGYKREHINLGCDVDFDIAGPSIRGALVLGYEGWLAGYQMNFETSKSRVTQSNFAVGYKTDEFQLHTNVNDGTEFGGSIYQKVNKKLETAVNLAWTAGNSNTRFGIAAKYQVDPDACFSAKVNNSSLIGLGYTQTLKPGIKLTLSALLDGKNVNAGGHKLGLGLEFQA

Results are given in words; binding and its absence hold for the method and conditions named. Binding seen in cells or lysates may run through a third protein. Binding calls can cover weak binding; strength is not graded here.

In the assay the target is Voltage-dependent anion channel 1 (mouse (endogenous in CMECs)) (UniProt Q60932). The experiment in a line: co-IP; CMEC proteins cross-linked in 1% paraformaldehyde, cells lysed by sonication in PBS with 1% Triton X-100, incubated with the respective antibodies and protein A/G agarose; immunoprecipitates probed with HK2 antibody.

B1: Hexokinase 2 (enzyme, UniProt O08528 1-917)
chain: MIASHMIACLFTELNQNQVQKVDQYLYHMRLSDETLLEISRRFRKEMEKGLGATTHPTAAVKMLPTFVRSTPDGTEHGEFLALDLGGTNFRVLRVRVTDNGLQRVEMENQIYAIPEDIMRGSGTQLFDHIAECLANFMDKLQIKEKKLPLGFTFSFPCHQTKLDESFLVSWTKGFKSSGVEGRDVVDLIRKAIQRRGDFDIDIVAVVNDTVGTMMTCGYDDQNCEIGLIVGTGSNACYMEEMRHIDMVEGDEGRMCINMEWGAFGDDGTLNDIRTEFDREIDMGSLNPGKQLFEKMISGMYMGELVRLILVKMAKAELLFQGKLSPELLTTGSFETKDVSDIEDDKDGIQKAYQILVRLGLSPLQEDCVATHRICQIVSTRSASLCAATLAAVLWRIKENKGEERLRSTIGVDGSVYKKHPHFAKRLHKAVRRLVPDCDVRFLRSEDGSGKGAAMVTAVAYRLADQHRARQKTLESLKLSHEQLLEVKRRMKVEMEQGLSKETHEAAPVKMLPTYVCATPDGTEKGDFLALDLGGTNFRVLLVRVRNGKRRGVEMHNKIYSIPQEVMHGTGEELFDHIVQCIADFLEYMGMKGVSLPLGFTFSFPCQQNSLDQSILLKWTKGFKASGCEGEDVVTLLKEAIRRREEFDLDVVAVVNDTVGTMMTCGYEDPHCEVGLIVGTGSNACYMEEMRNVELVDGEEGRMCVNMEWGAFGDNGCLDDLRTVFDVAVDELSLNPGKQRFEKMISGMYLGEIVRNILIDFTKRGLLFRGRISERLKTRGIFETKFLSQIESDCLALLQVRAILRHLGLESTCDDSIIVKEVCTVVARRAAQLCGAGMAAVVDKIRENRGLDNLKVTVGVDGTLYKLHPHFAKVMHETVRDLAPKCDVSFLESEDGSGKGAALITAVACRIREAGQR
Turning to B1, the binding result was “binds”.
